{
  "source": "patent US4855290A",
  "about": "(priority 1985, dated 1989)",
  "key": {"Guinea-pig ileum [1]": {"tested_on": "Guinea-pig ileum", "test": "Guinea-pig ileum induced contractions", "details": "ileum contraction"}, "Guinea-pig ileum [2]": {"tested_on": "Guinea-pig ileum", "test": "Guinea-pig ileum induced contractions", "excerpt": "Guinea-pig ileum induced contractions\n*This dose is the IC50 for inhibiting acetylcholineinduced\ncontractions of the ileum."}},
  "note": "At least one compound was matched to its structure with a doubt left.",
  "data": [
    {"smiles": "CC(=O)OCC[N+](C)(C)C", "note": "[Acetylcholine, reference compound]", "values": [
      {"measurement": "EC50", "setting": "Guinea-pig ileum [1]", "value": 50, "unit": "nM"},
      {"measurement": "Type of activity", "setting": "Guinea-pig ileum [2]", "value": "agonist"}
    ]}
  ]
}
